Drawing on PMC10538557, “Vps60 initiates alternative ESCRT-III filaments” (The Journal of Cell Biology, 2023), this text covers binding for one molecule.

Results are given in words; binding and its absence hold for the method and conditions named. Some binding calls cover weakened binding; strength is not graded here. Where a sequence is shown, tags or fusion partners need not be part of it.

The target of the assay is Vps60-HA (S. cerevisiae) (UniProt Q03390). As to the kind of experiment: rate-zonal density gradient centrifugation; membrane fraction of yeast solubilized in PBS with 0.5% Tween-20, 10–40% glycerol gradient, 100,000× g for 4 h at 4°C, fractions blotted with anti-HA and anti-Snf7; wildtype, VPS4-deleted and vps4 E233Q strains.

B1: Vps60-HA (protein, UniProt Q03390 1-229)
chain: MNRIFGYGNKKSHDQLLQESNQSMNQAQQSLSNRISQLDTQIAQLNFQLQNIQKNLQRSNNKQPSLRKQALKILNKRKQLENMKDSLDSQSWSMTQAQLTNDNLQNTMITINALKQTNNAMKAQYGKINIDKLQDMQDEMLDLIEQGDELQEVLAMNNNSGELDDISDAELDAELDALAQEDFTLPTSENSLGNDMPSYLLGANAPPAFIDEEPNLDTEDKNKALESAQ
Regarding B1, the binding result was “binds”.
